Data on four sequences can be found in paper doi:10.1101/2023.12.11.571118.

Protein sequences, listed by entry. Tags and fused reporters are not part of them. Lines headed by an entry give the natural chain unless they say otherwise; changes in a name come on top.
UniProt Q84K00: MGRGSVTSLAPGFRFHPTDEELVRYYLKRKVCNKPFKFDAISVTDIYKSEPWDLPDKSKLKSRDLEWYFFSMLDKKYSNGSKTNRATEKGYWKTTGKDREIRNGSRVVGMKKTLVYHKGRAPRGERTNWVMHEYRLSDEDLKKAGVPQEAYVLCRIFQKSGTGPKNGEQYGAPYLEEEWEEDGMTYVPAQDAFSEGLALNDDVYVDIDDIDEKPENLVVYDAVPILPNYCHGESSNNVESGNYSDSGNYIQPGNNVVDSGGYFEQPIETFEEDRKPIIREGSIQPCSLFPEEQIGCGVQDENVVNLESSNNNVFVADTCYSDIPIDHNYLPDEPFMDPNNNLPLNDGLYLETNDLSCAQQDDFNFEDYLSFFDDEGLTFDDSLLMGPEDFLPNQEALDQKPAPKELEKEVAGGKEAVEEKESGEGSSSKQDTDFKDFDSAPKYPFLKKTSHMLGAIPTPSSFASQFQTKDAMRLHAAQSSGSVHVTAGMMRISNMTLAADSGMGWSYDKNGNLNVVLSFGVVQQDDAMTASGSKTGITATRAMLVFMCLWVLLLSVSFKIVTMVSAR
UniProt Q949N0: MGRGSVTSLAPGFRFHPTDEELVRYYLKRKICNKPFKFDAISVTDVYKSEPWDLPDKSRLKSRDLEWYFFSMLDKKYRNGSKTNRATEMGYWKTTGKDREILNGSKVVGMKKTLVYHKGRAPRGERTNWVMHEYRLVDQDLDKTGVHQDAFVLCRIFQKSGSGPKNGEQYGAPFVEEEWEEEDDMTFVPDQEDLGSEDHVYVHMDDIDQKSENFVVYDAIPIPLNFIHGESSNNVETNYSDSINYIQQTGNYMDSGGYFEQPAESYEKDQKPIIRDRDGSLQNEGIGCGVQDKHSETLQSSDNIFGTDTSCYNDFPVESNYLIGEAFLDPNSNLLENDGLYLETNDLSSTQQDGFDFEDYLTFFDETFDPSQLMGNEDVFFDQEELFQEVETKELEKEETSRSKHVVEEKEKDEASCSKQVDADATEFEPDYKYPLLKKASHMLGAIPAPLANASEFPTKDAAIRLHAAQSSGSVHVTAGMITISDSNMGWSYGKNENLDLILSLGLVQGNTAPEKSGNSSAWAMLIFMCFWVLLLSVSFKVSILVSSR

In data set [1] the test system is MBP-NAC53 ΔRM (Arabidopsis thaliana). The experiment in a line: EMSA.
In data set [2] the test system is MBP-NAC78 ΔRM (Arabidopsis thaliana). The experiment in a line: EMSA.
In data set [3] the target is MBP-NAC78 (Arabidopsis thaliana) (UniProt Q84K00). The experiment in a line: EMSA.
Data set [4] concerns the target MBP-NAC53 (Arabidopsis thaliana) (UniProt Q949N0). The experiment in a line: EMSA.
The target of data set [5] is MBP-NAC78 (Arabidopsis thaliana) (UniProt Q84K00). The experiment in a line: competition with a labelled probe. As to conditions: EMSA.
The target in data set [6] is MBP-NAC53 (Arabidopsis thaliana) (UniProt Q949N0). The experiment in a line: competition with a labelled probe. Conditions: EMSA.
Setting [7] is: 25-100X unlabelled competitor vs LHCa3 probe.
Setting [8] is: 25-100X unlabelled competitor vs PSAD1 probe.

The exact form of at least one protein or probe is not confirmed. For part of these data: Negatives hold for the conditions tested. For part of these data: At least one verdict was read from the data and is not stated in words by the source.

With “GTTTCTTAATGCCCAAGGATGAAGG (double strand) [PRCE_LHCA3 probe]”, the binding result in data set [1] is on record as “no binding”; in data set [2], “no binding”; in data set [3], “binds”; in data set [4], “binds”.
In the case of “GTTTCTTAATTTTTTAGGATGAAGG (double strand) [PRCE_LHCA3 mut competitor]”, the binding result in data set [5] (setting [7]) and in data set [6] (setting [7]) was “no binding” in each case.
As to “TTTGATTCAGGCCCAAGTTTCAATC (double strand) [PRCE_PSAD1 probe]”, the binding result in data set [1] is listed as “no binding”; in data set [2], “no binding”; in data set [3], “binds”; in data set [4], “binds”.
For the sequence “TTTGATTCAGTTTTTAGTTTCAATC (double strand) [PRCE_PSAD1 mut competitor]”, the binding result in data set [5] (setting [8]) and in data set [6] (setting [8]) was “no binding” in each case.
